In article PMC6192195, “Hampered motility promotes the evolution of wrinkly phenotype in Bacillus subtilis” (BMC Evolutionary Biology, 2018):
The exact form of at least one protein or probe is not confirmed.

Protein sequences, listed by entry. Tags and fused reporters are not part of them.
UniProt P06533, whole entry L99S: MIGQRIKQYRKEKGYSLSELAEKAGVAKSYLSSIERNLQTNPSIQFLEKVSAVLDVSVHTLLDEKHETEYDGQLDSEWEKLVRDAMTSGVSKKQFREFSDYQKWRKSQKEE

Biological target: SinR-L99S (UniProt P06533)
Assay: ITC
Conditions: binding site 2 of two-sites model; ITC: buffer C (20 mM HEPES/NaOH, 500 mM NaCl; pH not stated for buffer C, 8.0 for buffers A/B), 25 °C; 30 µM SinR in cell, 150 µM IR-DNA titrated in; recombinant protein; residues 1-111; protein details: C-terminal His6

TTTGTTCTCTAAAGAGAACTTA (double strand) [IR-DNA (SinR operator inverted repeat)]
Kd: 288 nM
